The text below walks through data of paper doi:10.1101/2020.04.19.049296.

Protein sequences, listed by entry. Tags and fused reporters are not part of them. Lines headed by an entry give the natural chain unless they say otherwise; changes in a name come on top.
UniProt Q0JMY8: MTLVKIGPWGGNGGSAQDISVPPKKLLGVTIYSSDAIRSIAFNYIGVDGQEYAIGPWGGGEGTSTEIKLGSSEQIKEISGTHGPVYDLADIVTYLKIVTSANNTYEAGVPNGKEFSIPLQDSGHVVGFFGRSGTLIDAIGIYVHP
UniProt Q0JQF7: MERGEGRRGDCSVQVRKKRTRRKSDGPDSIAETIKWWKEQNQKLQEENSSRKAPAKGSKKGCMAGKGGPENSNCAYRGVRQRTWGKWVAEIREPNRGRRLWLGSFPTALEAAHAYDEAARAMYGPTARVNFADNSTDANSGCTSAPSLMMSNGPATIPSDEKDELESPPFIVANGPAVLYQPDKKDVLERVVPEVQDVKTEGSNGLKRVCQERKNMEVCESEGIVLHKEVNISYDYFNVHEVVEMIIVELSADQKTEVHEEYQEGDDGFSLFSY

The assay has as its target OsSalT-cVenus (rice) (UniProt Q0JMY8). In words: split reporter.

Results are given in words; binding and its absence hold for the method and conditions named. In cells and extracts the contact can be indirect. Binding can be weak; no strength is given.

Consider OsNAC1-nVenus (from UniProt Q8H0I5), for which the binding result is “binds”.
Next, “OsDREB2A-nVenus (from UniProt Q0JQF7 1-274)”: “binds”.
